The other results are listed elsewhere or left out. Values are raw readings; no control value is given beside them.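 First-pass screen: polymyxin B was added at a level that permeabilizes the Salmonella outer membrane while sparing the inner membrane. DMSO wells, with and without polymyxin B, defined maximum growth. Because plates differed from one another, each plate's data were ranked separately and the compounds with the lowest OD600 were carried forward as hits.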
Tested on: Salmonella enterica serovar Typhimurium SL1344
Assay: bacterial growth OD600 after 18 h with compound and polymyxin B; higher = more bacterial growth (less inhibition)
Settings: 50 µM, Mueller-Hinton broth

COc1cc(CN2CCc3[nH]nc(-c4ccccc4F)c3C2)cc2c1OCO2
bacterial growth OD600 (polymyxin B 0.75 µg/mL): 0.736

COc1ccc(OC2CCN(c3nncc(-c4c(OC)cccc4OC)n3)CC2)cc1
bacterial growth OD600 (polymyxin B 1 µg/mL): 0.01

O=C(NCC1Cc2c(F)ccc(-c3ccncc3)c2O1)c1cc(Cl)ccc1F (stereo unspecified)
bacterial growth OD600 (polymyxin B 0.75 µg/mL): 0.002

C=C(C)CN(CC)C(=O)CC1(c2ccccc2OC)CC(=O)N(CCCOC)C1=O (stereo unspecified)
bacterial growth OD600 (polymyxin B 0.75 µg/mL): 0.785

COCC(=O)Nc1cc(C(=O)N2CCC(c3ccncc3)CC2)c2c(c1)nc(C1CCC1)n2C
bacterial growth OD600 (polymyxin B 0.75 µg/mL): 0.932

COc1ccccc1C1(CC(=O)N2CCC(Cc3ccccc3)CC2)CC(=O)N(C)C1=O (stereo unspecified)
bacterial growth OD600 (polymyxin B 0.75 µg/mL): 0.411

CN(CC1COc2ccccc2O1)C(=O)c1cn(Cc2ccccc2Cl)nn1 (stereo unspecified)
bacterial growth OD600 (polymyxin B 1 µg/mL): 1.01

O=C(c1ccc(NCC2CCCOC2)nc1)N1CCC(CCn2cccn2)CC1 (stereo unspecified)
bacterial growth OD600 (polymyxin B 1 µg/mL): 0.962

COc1ccc(F)c(CNC2CCCc3nc(N4CCC(CO)CC4)ncc32)c1 (stereo unspecified)
bacterial growth OD600 (polymyxin B 0.75 µg/mL): 0.875

COc1cc(NC(=O)CCC2CCCN(C(=O)c3csnn3)C2)cc(OC)c1 (stereo unspecified)
bacterial growth OD600 (polymyxin B 0.75 µg/mL): 0.812

COCCCN1C(=O)CC(CC(=O)N2CC3CC4CC(C3)CC2C4)(c2ccccc2OC)C1=O (stereo unspecified)
bacterial growth OD600 (polymyxin B 0.75 µg/mL): 0.7

O=C(c1cn2ccccc2n1)N1CCOC(CC2CCCCC2)C1 (stereo unspecified)
bacterial growth OD600 (polymyxin B 0.75 µg/mL): 0.863

Cc1nnc(SCC(=O)NC2CC(C)(C)Cc3c2cnn3-c2ccc(F)cc2)o1 (stereo unspecified)
bacterial growth OD600 (polymyxin B 1 µg/mL): 0.761

Cc1nc(N2CCC(NC3(c4ccccc4)CC3)CC2)nc2ccc(F)cc12
bacterial growth OD600 (polymyxin B 0.75 µg/mL): 0.019

O=C(CCn1cncn1)N1CCc2[nH]nc(-c3ccc(C(F)(F)F)cc3)c2C1
bacterial growth OD600 (polymyxin B 0.75 µg/mL): 0.898

CN(CC1Cc2ccccc2O1)C(=O)c1ccc(-n2cc(NC(=O)c3cccnc3)cn2)cc1 (stereo unspecified)
bacterial growth OD600 (polymyxin B 0.75 µg/mL): 0.826

COc1cc(CN2CCN(Cc3cc(F)cc(F)c3)CC2CCO)cc(OC)c1 (stereo unspecified)
bacterial growth OD600 (polymyxin B 1 µg/mL): 0.899

Cc1ccc(-n2ncc3c2CC(C)(C)CC3NC(=O)CCc2cn[nH]c2)cc1 (stereo unspecified)
bacterial growth OD600 (polymyxin B 0.75 µg/mL): 0.75

O=C(NCc1cccnc1Oc1ccccc1)C1CCOC1 (stereo unspecified)
bacterial growth OD600 (polymyxin B 1 µg/mL): 0.957

COc1ccccc1CN(C)C(=O)c1coc(COc2ccccc2)n1
bacterial growth OD600 (polymyxin B 1 µg/mL): 0.656

Cc1cc(C)n(CCNC(=O)c2ccccc2OC2CCN(S(C)(=O)=O)CC2)n1
bacterial growth OD600 (polymyxin B 1 µg/mL): 0.815

Cc1cc(CNc2ccc(C(=O)NCCC3COc4ccccc4O3)cn2)no1 (stereo unspecified)
bacterial growth OD600 (polymyxin B 1 µg/mL): 0.969

Cc1ccc(OCc2cc(C(=O)N(C)CCn3nc(C)cc3C)no2)cn1
bacterial growth OD600 (polymyxin B 1 µg/mL): 0.88

COc1cc(CC2(CCC(=O)N3CCOc4ccc(Cl)cc4C3)CCC(=O)N2)ccc1F (stereo unspecified)
bacterial growth OD600 (polymyxin B 0.75 µg/mL): 0.775

COc1ccccc1CCN1CCCC(CN(C)C(=O)CCC(F)(F)F)C1 (stereo unspecified)
bacterial growth OD600 (polymyxin B 1 µg/mL): 0.975

Cc1cnc(SCCN2CCOCC2)nc1C1CCCN(C(=O)CCc2scnc2C)C1 (stereo unspecified)
bacterial growth OD600 (polymyxin B 0.75 µg/mL): 0.938

C#Cc1cccc(C(=O)N2CCC3(CC2)c2ccccc2[C@@H](NC(=O)COc2ccccc2)[C@@H]3OC)c1
bacterial growth OD600 (polymyxin B 0.75 µg/mL): 0.097

C=C(C)CNC(=O)C1CCCN(C2CCN(C3Cc4ccccc4C3)CC2)C1 (stereo unspecified)
bacterial growth OD600 (polymyxin B 0.75 µg/mL): 1.05

CN(C)C1(CNC(=O)c2ccc(OC3CCN(C(=O)C4CC4)CC3)cc2)CCCCC1
bacterial growth OD600 (polymyxin B 1 µg/mL): 0.859

CN(C)c1cccc(C(=O)NC2CC(=O)N(C3CCCCCC3)C2)c1 (stereo unspecified)
bacterial growth OD600 (polymyxin B 1 µg/mL): 0.958

CCC1CCCCN1C(=O)CCC1(Cc2ccc3ccccc3c2)CCC(=O)N1 (stereo unspecified)
bacterial growth OD600 (polymyxin B 0.75 µg/mL): 0.875
